Hit rate of the full screen: of about 52,000 sequences, about 210 (0.4%) were called active.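 Rule for the calls: active = gene whose silencing raises cell survival under the drug, median off-target-corrected z-score across its silencing RNAs 2 or more; inactive = the rest.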 Some of the results follow.
Assay: Resistance to Poly (ADP-Ribose) Polymerase inhibitor: Gene Identification via Genome-wide siRNA Screen
Conditions: mouse BRCA2 R2336H ES cells, olaparib, CellTiter-Glo viability; stronger effect = higher value
Procedure, shortened: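 Mouse BRCA2 R2336H ES cells were reverse-transfected with siRNA (20 nM final), treated at 48 h with 500 nM olaparib, and read by CellTiter-Glo after 72 h. Scores: MAD-based z per siRNA, median per gene, seed off-target correction.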

| Sequence | z-score |
| --- | --- |
| GGAUGAAUACAGUGAAUAUTT against Ppil3 | inactive: -0.727 |
| GGAAACCUUUUCAUUAACATT against Il23r | inactive: -0.0443 |
| CCGUGUGAAUCCCUGCAUUTT against Aldoa | inactive: -2.07 |
| GCACAUAUGUCUUUCCCAGTT against Fbxl7 | inactive: 3.72 |
| GGAGUUGAAGAGAAGCAGGTT against Tac4 | inactive: -1.65 |
| GCGAGCCAAGUUUGAACUUTT against Elovl6 | inactive: -0.4 |
| GGCUCAAGAUAUCUAAGUATT against Olfr656 | inactive: 1.38 |
| GGCCUUCAGUCCAUUUUUCTT against Sms | inactive: -0.0935 |
| GGAGAGGACAGAAAGCAAATT against Gpr24 | inactive: 2.03 |
| UCACAAUGGAUAUUUACCUTT against Olfr693 | inactive: 0.636 |
| GGGAAUGUGUUCAAAAACATT against Rpl19 | inactive: -3.12 |
| CGAGGGCUACCUCAACAACTT against Syngr1 | inactive: 0.539 |
| GGAAGAUGACAAGUUGAUCTT against 4930422J18Rik | inactive: 0.306 |
| CGAAAGAGAUGAUGAUAAUTT against Arrdc3 | inactive: -0.117 |
| GGCCUUGUAUGAAUUAUUUTT against Sqle | inactive: 0.519 |
| GCCUCGAUGCAAGAUGAUGTT against Tmem24 | inactive: -0.358 |
| GGAGUUCAAUUCAUUGCCATT against Ptpre | inactive: 0.918 |
| GCACCAUACCUACCACAUATT against 1110034C04Rik | inactive: -0.91 |
| CAACACUGCCUCUUGCACATT against V1rh6 | inactive: 1.21 |
| GCCUACGUGAAAUCUCACATT against Lmyc1 | inactive: 1.72 |
| GCCAGUUGAAACCUAAACATT against Slc35d2 | inactive: 0.0786 |
| GGAAAUCUCAGGUGAGGUCTT against Mclc | inactive: -1.73 |
| GGAAAUAGUCAAAAGCUAUTT against Gpc5 | inactive: -0.0312 |
| GGUUCUGCCAUGGAGGAAUTT against Svs5 | inactive: -1.01 |
| GGGAGUCCCUGUGCUUAUATT against Arl4 | inactive: -1.44 |
| CCUAAUAGAUGAAUCCAAUTT against Prg | inactive: 1.1 |

| Sequence | z-score |
| --- | --- |
| GCUGAGAUAAGAAGUUUAATT against H2afy2 | inactive: 0.98 |
| GGAUGCUACAAAUUCACCUTT against 1810029B16Rik | inactive: -0.635 |
| GGAACAGCUAAAGUUGGGATT against Kcnj9 | inactive: 0.597 |
| GGGUAUUUUGACAAUUUGGTT against 9430095K15Rik | inactive: 0.348 |
| GCAUCAAUGGGCUAUUGAUTT against C030018L16Rik | inactive: -0.45 |
| GGAGAAGAUCAAGAUGUUCTT against AL024210 | inactive: 0.786 |
| GGCCCAGAUUGACCAGUAUTT against Rtn2 | inactive: -2.05 |
| CCCUUUAUACCUUUGUGUATT against Stat5a | inactive: 0.602 |
| GGCUUACCAACAGCAAACATT against Fzd1 | inactive: 0.56 |
| GGAGUUUGAACAAGAAAUATT against Prss12 | inactive: 0.182 |
| GGUGUGUGAAAUCACUCACTT against BC019806 | inactive: 0.312 |
| GGACUGUGCAACUUUGUGGTT against Timp3 | inactive: 0.205 |
| GGAGUAGCAUCAAUGUUUATT against Ebpl | inactive: -0.106 |
| GGAUUUUUAACCAAAGGAATT against Gnpnat1 | inactive: -0.323 |
| GCUUGGAAUAUAGGUUAUATT against DXImx39e | inactive: -1.8 |
| CCGAUUCAUUGAGUCUGGGTT against Lfng | inactive: 0.762 |
| GGUUUCAGGUGGACUUCCATT against Lgals12 | inactive: -0.443 |
| GGUAGAAGACAUUCAGAUGTT against Nr4a2 | inactive: 0.377 |
| CCAUUUGUAACAUGAUAGCTT against Ctss | inactive: 0.57 |
| GGAAGUCAAGAAAGUGGCCTT against H1f0 | inactive: 0.618 |
| CCUAAGAACCCUGAUCCUATT against A030005L19Rik | inactive: 0.67 |
| GCCAAGAGGACAUUUGGCATT against Kif24 | inactive: 0.147 |
| CCCUCAUAGUAACAGGAUGTT against MGC68323 | inactive: 0.759 |
| GCACAAAUGGCACUAUUGATT against D19Ertd386e | inactive: 0.133 |
| CCCUCAAGAAUAUUUAACCTT against Smarcc1 | inactive: -0.562 |
| GGAGAUGCUAGAAAUUGUGTT against Hpca | inactive: 1.1 |

Fetched one by one from the entries so far:

| Sequence | z-score |
| --- | --- |
| GGAGAAGAUCAAGAUGUUCTT against AL024210 | inactive: 0.786 |
| GGGAGUCCCUGUGCUUAUATT against Arl4 | inactive: -1.44 |

Following part

| Sequence | z-score |
| --- | --- |
| GCCCAGGCAAAAUAAGGAGTT against Itpkc | inactive: -0.134 |
| GCUUUAGGUAUGGUCCUAATT against A430072C10Rik | inactive: -0.143 |
| GCCAAAUAUUGCUUUGUUGTT against Gadd45a | inactive: -0.341 |
| GGAGCAUUAUGCUUUGUGGTT against Mgat1 | inactive: -0.912 |
| GGCCUUUGCACGUGGAUUGTT against B230312I18Rik | inactive: 1.55 |
| GGUAGCAGUUGGACCUAAUTT against Set7 | inactive: 0.789 |
| CCUAUAAAGCUCUAAAGGATT against Gpiap1 | inactive: -0.324 |
| GCUUGUGCUGAAUUACACCTT against Vps35 | inactive: 0.462 |
| GGAUGAGUCUUUAGAAGAATT against MGC91194 | inactive: -2.02 |
| GCCUCAACAUGAUCCCGAGTT against 1700011F14Rik | inactive: 2.64 |
| GCAUUGUUAGUACUUAGCUTT against V1ri10 | inactive: -0.167 |
| GGACGAGUACUGCUACAAUTT against 1500003O22Rik | inactive: -0.637 |
| GGAUCCAGACUUAAGCUUATT against BC021513 | inactive: 0.466 |
| CGCCGACAGAGUUCAGAAATT against 4930555I21Rik | inactive: 2.34 |
| GCUGAUCAUCCGUUUCACUTT against Hdc | inactive: -0.487 |
| GGGUGUUCGUUAGUCCUCUTT against Dlat | inactive: 2.44 |
| GGUUCUUUGGAAUGCUUUUTT against 2900073G15Rik | inactive: 3.49 |
| GGUCUAUCCUACAGCUGAGTT against Prlpc2 | inactive: 1.2 |
| CCAAGUGCUCAGCUAAACUTT against Gm397 | inactive: -1.71 |
| GGAAAAGGUUAAACUUUGATT against Cenpc1 | inactive: -0.514 |
| GGAGGAGCAGGAACAGUAUTT against B3gnt6 | inactive: -0.875 |
| CGGGAUGUCAAAGUGUCAUTT against Tmem14a | inactive: 0.504 |
| GGAAUUCGUAAAGAUUGCATT against 9530027K23Rik | inactive: 0.157 |
| GGAGGAGGCUGACUACUUUTT against 6530404F10Rik | inactive: 0.431 |
| GCCAAGAAAGAAGGCGUAUTT against Cox6c | inactive: 0.618 |
| GGCACUUGAACAGAGUAGUTT against 4930513F16Rik | inactive: -0.288 |

Some of the entries above in another layout.
Sequence | z-score
GCCCAGGCAAAAUAAGGAGTT against Itpkc | inactive: -0.134
GCUUUAGGUAUGGUCCUAATT against A430072C10Rik | inactive: -0.143
GCCAAAUAUUGCUUUGUUGTT against Gadd45a | inactive: -0.341
GGAGCAUUAUGCUUUGUGGTT against Mgat1 | inactive: -0.912
GGCCUUUGCACGUGGAUUGTT against B230312I18Rik | inactive: 1.55
GGUAGCAGUUGGACCUAAUTT against Set7 | inactive: 0.789
CCUAUAAAGCUCUAAAGGATT against Gpiap1 | inactive: -0.324
GCUUGUGCUGAAUUACACCTT against Vps35 | inactive: 0.462
GGAUGAGUCUUUAGAAGAATT against MGC91194 | inactive: -2.02
GCCUCAACAUGAUCCCGAGTT against 1700011F14Rik | inactive: 2.64
GCAUUGUUAGUACUUAGCUTT against V1ri10 | inactive: -0.167
GGACGAGUACUGCUACAAUTT against 1500003O22Rik | inactive: -0.637
GGAUCCAGACUUAAGCUUATT against BC021513 | inactive: 0.466
CGCCGACAGAGUUCAGAAATT against 4930555I21Rik | inactive: 2.34
GCUGAUCAUCCGUUUCACUTT against Hdc | inactive: -0.487
GGGUGUUCGUUAGUCCUCUTT against Dlat | inactive: 2.44
GGUUCUUUGGAAUGCUUUUTT against 2900073G15Rik | inactive: 3.49
GGUCUAUCCUACAGCUGAGTT against Prlpc2 | inactive: 1.2
CCAAGUGCUCAGCUAAACUTT against Gm397 | inactive: -1.71
GGAAAAGGUUAAACUUUGATT against Cenpc1 | inactive: -0.514
GGAGGAGCAGGAACAGUAUTT against B3gnt6 | inactive: -0.875
CGGGAUGUCAAAGUGUCAUTT against Tmem14a | inactive: 0.504
GGAAUUCGUAAAGAUUGCATT against 9530027K23Rik | inactive: 0.157

The list continues:

| Sequence | z-score |
| --- | --- |
| GCUGGCUUUGAUUUAUGGATT against Prkar1a | inactive: -0.891 |
| GGAAAUGGCAAAUUCAACUTT against Cspg2 | inactive: 0.952 |
| GCACAACGUAAAAACAUCATT against Cova1 | inactive: 2.33 |
| CCGAAAUAAGGCUAGCUCATT against Rfxdc1 | inactive: 1.33 |
| GGACAGGAAGAAAAGAAACTT against 4930518C23Rik | inactive: -0.455 |
| GUAUUGUCAUCAUCAUUUCTT against Olfr910 | inactive: 0.581 |
| GGAAUGACUUUUGAGACAGTT against Cyp1a1 | inactive: 1.69 |
| GGUUCAGAUGUCUGAUAAATT against 4833420N02Rik | inactive: 1.61 |
| GGGAACGCAACAUUUCUCCTT against 1810049H13Rik | inactive: -1.2 |
| GGAUGACUCAAUAUUUGUCTT against V1rb8 | inactive: -0.511 |
| GGACUCAUUGUCUUUAACATT against Amy1 | inactive: -1.38 |
| GGAGCUGUGGGAGAAGAACTT against 5730469M10Rik | inactive: 0.428 |
| GCUUAAUGAAUCAUCGGUUTT against Itga3 | inactive: -0.285 |
| GCGAGAGUGAAAACAUCCATT against C030014K22Rik | inactive: -1.01 |
| CGAGCUGGAUCUGUUUAGATT against 2510027N19Rik | inactive: 0.014 |
| GGAGUUUGGAACAAGAGAUTT against Prkcsh | inactive: -0.737 |
| GGUUUAAAAUAGGUUUGGATT against AI597479 | inactive: 0.0989 |
| GCCGUACGAAAAAUAAGCATT against Rps7 | inactive: -2.37 |
| GGCCGUUCAUUUCCUCAUCTT against Galr2 | inactive: 0.144 |
| GCUAUGAAGAAAAAUCGGATT against 4832428D23Rik | inactive: 0.793 |
| CCAGAGUCUUUGGUAAUGCTT against Krtap3-3 | inactive: -0.438 |
| GGCUGAUGACACUUACACATT against V1rg11 | inactive: 1.02 |
| CCUGCCUAGAUGUUUCAGCTT against Ifna13 | inactive: 0.611 |
| GGGUGAAAGAAAGAAAGAATT against Plp1 | inactive: -0.904 |
| GGCUGGCUUUGAACUCAAUTT against Zfp36 | inactive: -1.07 |
| GGAAGACUGUAACACCAUCTT against 4921520G13Rik | inactive: 0.402 |

— PubChem BioAssay AID1347423 (Functional Genomics Laboratory (NCATS/FGL), 2020)
